Values of other authors as cited in patent US20100261711A1, “SELECTIVE ANTICONVULSANT AGENTS AND THEIR USES” (WiSys Technology Foundation, priority 2009, published 2010).
pKi: −log10 of the molar value.

Chains of the proteins cited; added tags and fusions are not shown. Residues count along the entry.
UniProt P18507, 40-475: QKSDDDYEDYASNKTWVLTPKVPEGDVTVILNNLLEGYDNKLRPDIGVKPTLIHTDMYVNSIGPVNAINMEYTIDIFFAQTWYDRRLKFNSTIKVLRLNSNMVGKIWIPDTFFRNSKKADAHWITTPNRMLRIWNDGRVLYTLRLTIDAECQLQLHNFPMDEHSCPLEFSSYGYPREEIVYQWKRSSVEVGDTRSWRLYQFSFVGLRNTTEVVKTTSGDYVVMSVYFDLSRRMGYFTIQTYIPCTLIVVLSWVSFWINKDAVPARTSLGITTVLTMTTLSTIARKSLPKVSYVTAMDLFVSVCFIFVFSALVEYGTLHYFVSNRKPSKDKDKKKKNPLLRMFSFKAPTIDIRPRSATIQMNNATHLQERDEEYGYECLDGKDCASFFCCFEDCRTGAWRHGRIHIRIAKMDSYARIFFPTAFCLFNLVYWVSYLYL
UniProt P31644, 32-462: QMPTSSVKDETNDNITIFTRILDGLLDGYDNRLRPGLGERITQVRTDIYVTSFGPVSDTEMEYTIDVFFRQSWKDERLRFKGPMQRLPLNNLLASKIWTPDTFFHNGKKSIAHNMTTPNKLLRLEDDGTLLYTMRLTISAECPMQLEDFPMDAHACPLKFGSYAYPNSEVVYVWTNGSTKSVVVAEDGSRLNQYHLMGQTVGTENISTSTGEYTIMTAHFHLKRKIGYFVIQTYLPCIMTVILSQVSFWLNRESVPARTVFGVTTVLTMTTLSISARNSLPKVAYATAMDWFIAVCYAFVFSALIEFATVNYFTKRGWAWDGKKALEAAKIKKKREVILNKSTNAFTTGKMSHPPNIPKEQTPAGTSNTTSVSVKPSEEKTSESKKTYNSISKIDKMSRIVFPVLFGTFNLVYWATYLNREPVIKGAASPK

Biological target: GABAA/α5 receptors (Homo sapiens, UniProt P18507+P31644)
Details: read-out: Ki GABAA/α5; Huang et al., J. Med. Chem. 2000, 43, 71-95; cited from earlier work

## CN1C(=O)CN=C(c2ccccc2)c2cc(Cl)ccc21 [Diazepam, reference compound]
  pKi: > 7.60
